Data: publication PMC10517019
Results are given in words; binding and its absence hold for the method and conditions named. Binding seen in cells or lysates may run through a third protein. Here binding means that the protein was enriched with, or labelled near, the bait; the list need not be complete.

Sequences of proteins named here, by UniProt entry; tags and fusion partners are left off.
UniProt P26038: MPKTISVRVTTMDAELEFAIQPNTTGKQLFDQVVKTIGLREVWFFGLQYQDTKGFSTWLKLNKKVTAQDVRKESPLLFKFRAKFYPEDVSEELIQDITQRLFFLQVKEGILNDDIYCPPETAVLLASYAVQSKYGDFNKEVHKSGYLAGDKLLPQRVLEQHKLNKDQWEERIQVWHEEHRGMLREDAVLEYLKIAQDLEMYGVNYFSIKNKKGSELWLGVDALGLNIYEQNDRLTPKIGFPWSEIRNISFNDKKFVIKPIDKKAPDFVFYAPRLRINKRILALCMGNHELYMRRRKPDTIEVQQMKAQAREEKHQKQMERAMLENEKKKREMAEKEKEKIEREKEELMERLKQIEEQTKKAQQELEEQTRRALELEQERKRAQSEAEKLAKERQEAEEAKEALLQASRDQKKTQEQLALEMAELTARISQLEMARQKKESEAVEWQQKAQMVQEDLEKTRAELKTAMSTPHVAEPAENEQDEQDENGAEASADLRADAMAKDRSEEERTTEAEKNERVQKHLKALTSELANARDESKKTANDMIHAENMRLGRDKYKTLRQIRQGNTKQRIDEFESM

Target: T1, F-box and WD repeat-containing protein 2 (FBXW2), endogenous (human (endogenous in MCF7 and MDA-MB-231)) (UniProt Q9UKT8)
T1 sequence: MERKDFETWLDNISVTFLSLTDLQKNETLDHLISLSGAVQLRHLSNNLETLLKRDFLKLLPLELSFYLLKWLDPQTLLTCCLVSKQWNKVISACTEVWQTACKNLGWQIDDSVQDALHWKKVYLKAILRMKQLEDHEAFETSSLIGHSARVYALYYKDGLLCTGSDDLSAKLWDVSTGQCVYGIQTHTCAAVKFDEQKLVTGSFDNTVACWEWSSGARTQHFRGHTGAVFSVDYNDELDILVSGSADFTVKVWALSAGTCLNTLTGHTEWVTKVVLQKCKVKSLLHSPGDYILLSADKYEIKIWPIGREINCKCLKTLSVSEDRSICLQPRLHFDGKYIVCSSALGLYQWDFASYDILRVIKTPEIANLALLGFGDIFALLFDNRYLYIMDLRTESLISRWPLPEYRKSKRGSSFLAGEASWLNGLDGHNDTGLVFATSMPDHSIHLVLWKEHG
Assay: affinity purification with mass spectrometry; FBXW2 immunoprecipitated from MCF7 whole-cell lysate; bands unique to the FBXW2 immunoprecipitate excised from SDS-PAGE, trypsin digested, LC-MS/MS

Substance: Membrane-organizing extension spike protein (Moesin), endogenous (from UniProt P26038 1-577)
- binding: binds
